Drawing on paper PMC5343655, this text covers binding for 4 molecules.

The target in experiment [1] is T1, IHNV NV protein fused N-terminally to a triple flag tag (3xfNVihnv) (infectious hematopoietic necrosis virus (IHNV) 32-87) (UniProt Q08455).
T1 sequence: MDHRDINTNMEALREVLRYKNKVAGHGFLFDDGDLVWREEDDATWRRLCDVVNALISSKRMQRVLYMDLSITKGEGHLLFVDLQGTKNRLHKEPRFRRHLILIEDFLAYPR
As to the kind of experiment: co-IP; co-transfected EPC cells, lysed at 48 h (150 mM NaCl, 50 mM Tris/HCl pH 8, 20 mM EDTA, 0.5% NP-40); IP with anti-Flag M2 or anti-HA and protein A-Sepharose; immunoblot.

For experiment [2], the target named is epitope-tagged (HA) PPM1Bb from EPC cells (fathead minnow) (fathead minnow (Pimephales promelas)). The description is as above.

Results are given in words; binding and its absence hold for the method and conditions named. Binding seen in cells or lysates may run through a third protein. Binding calls can cover weak binding; strength is not graded here. Where a sequence is shown, tags or fusion partners need not be part of it.

Take “Salmon PPM1Bb (Atlantic salmon (Salmo salar)) (enzyme)”: in experiment [1], the binding result is reported as “binds”. The same measure, in the same setting: under “epitope-tagged (HA) PPM1Bb from EPC cells (fathead minnow) (enzyme)” stands “binds”. On the same count and under the same terms, under PPM1Aa (enzyme) stands “no binding”.

B1: IHNV NV protein fused N-terminally to a triple flag tag (3xfNVihnv) (protein, UniProt Q08455 1-111)
chain: MDHRDINTNMEALREVLRYKNKVAGHGFLFDDGDLVWREEDDATWRRLCDVVNALISSKRMQRVLYMDLSITKGEGHLLFVDLQGTKNRLHKEPRFRRHLILIEDFLAYPR
Regarding B1, in experiment [2], the binding entry is recorded as “binds”.
